Laboratory results published in US20210054084A1 (published 2021).
No constants are given. Whether binding was seen depends on the method and setting. Some entries that bind do so weakly or less than the wild type.

T1: recombinant human CD25 his tagged (UniProt P01589 22-213)
T1 chain: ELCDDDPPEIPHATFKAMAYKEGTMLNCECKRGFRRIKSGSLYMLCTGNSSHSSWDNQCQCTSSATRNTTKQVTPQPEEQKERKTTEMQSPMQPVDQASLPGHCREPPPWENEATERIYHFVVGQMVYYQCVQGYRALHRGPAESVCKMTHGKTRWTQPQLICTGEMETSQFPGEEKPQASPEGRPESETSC


Key:
[1] = target: recombinant human CD25 (ELISA antigen) (human) (UniProt P01589); experiment: ELISA, scFv on rhCD25; positive = OD above 3 times background
[2] = target: recombinant human CD25 (ELISA antigen) (human) (UniProt P01589); experiment: summary of the Table 3 assays (ELISA, flow cytometry)
[3] = target: T1, recombinant human CD25 his tagged; experiment: Octet sequential binding, rhCD25 his on Ni-NTA biosensors
[4] = target: T1, recombinant human CD25 his tagged; experiment: BLI, Octet Red 96, antibody on AHC biosensor

binding [1]	binding [2]	binding [3]	binding [4]	Binder
binds	binds	–	–	Antibody 1 (scFv in bacterial supernatant) (scFv, V domains shown, not shown: large carriers; small tags and cut ends) VH: EVQLVESGGGLIQPGGSLRLSCAASGFTLDSYGVSWVRQAPGKGLEWVGVTSSGGSAYYADSVKGRFTISRDNSKNTLYLQMNSLRAEDTAVYYCARDRYVYTGGYLYHYGMDLWGQGTLVTVSS VL: DIQMTQSPSSLSASVGDRVTITCRASQSISDYLAWYQQKPGKVPKLLIYAASTLPFGVPSRFSGSGSGTDFTLTISSLQPEDVATYYCQGTYDSSDWYWAFGGGTKVEIK
–	–	binds	binds	Antibody 1 as human IgG1 expressed in mammalian cells (antibody, V domains shown) VH: EVQLVESGGGLIQPGGSLRLSCAASGFTLDSYGVSWVRQAPGKGLEWVGVTSSGGSAYYADSVKGRFTISRDNSKNTLYLQMNSLRAEDTAVYYCARDRYVYTGGYLYHYGMDLWGQGTLVTVSS VL: DIQMTQSPSSLSASVGDRVTITCRASQSISDYLAWYQQKPGKVPKLLIYAASTLPFGVPSRFSGSGSGTDFTLTISSLQPEDVATYYCQGTYDSSDWYWAFGGGTKVEIK
binds	binds	–	–	Antibody 2 (scFv in bacterial supernatant) (scFv, V domains shown, not shown: large carriers; small tags and cut ends) VH: EVQLLESGGGLVQPGGSLRLSCAASGFSVDIYDMSWVRQAPGKGLEWVAYISSSLGATYYADSVKGRFTISRDNSKNTLYLQMNSLRAEDTAVYYCARERIYSVYTLDYYAMDLWGQGTLVTVSS VL: DIQMTQSPSSLSASVGDRVTITCQASQGITNNLNWYQQKPGKVPKLLIYAASTLQSGVPSRFSGSGSGTDFTLTISSLQPEDVATYYCQQGYTTSNVDNAFGGGTKVEIK
